Data published in patent US9458120B2, “Phenoxypropanol derivative and pharmaceutical composition including the same” (KOREA INSTITUTE OF SCIENCE AND TECHNOLOGY, priority 2011, dated 2016).
Values joined by “and” are separate entries in the source; they are usually repeats but may differ in a detail not shown here. Equal values may be shown once. At least one read-out could not be matched to a standard name with certainty.

Target: T1, TREK-1 channel (Rattus norvegicus, UniProt Q920B6)
T1 construct: expressed in transfected cells; host or cells: COS7 (Korean Cell Line Bank), transient transfection with Effectene
T1 sequence (Q920B6 1-426): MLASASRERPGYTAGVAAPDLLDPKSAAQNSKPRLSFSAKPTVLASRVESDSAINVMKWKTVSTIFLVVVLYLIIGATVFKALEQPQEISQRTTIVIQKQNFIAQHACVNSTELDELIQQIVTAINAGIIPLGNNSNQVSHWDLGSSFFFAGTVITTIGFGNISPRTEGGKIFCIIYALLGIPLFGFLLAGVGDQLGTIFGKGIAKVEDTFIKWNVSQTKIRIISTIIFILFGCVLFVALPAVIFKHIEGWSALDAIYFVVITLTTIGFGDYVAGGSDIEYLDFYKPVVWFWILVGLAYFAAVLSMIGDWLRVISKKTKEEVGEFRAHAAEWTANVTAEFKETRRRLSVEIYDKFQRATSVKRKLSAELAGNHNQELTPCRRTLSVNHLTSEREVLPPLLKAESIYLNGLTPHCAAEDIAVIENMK
Assay: Assay for TREK channel inhibition activity (whole cell patch clamp recording, COS7 cell transfected with GFP-rTREK-1)
Assay type: cell-based
Conditions: COS7 cells, GFP-rTREK-1, whole-cell patch clamp; for block % at 101 μM: Table 3 (value ± spread), 101 μM [sic]
Description: The inhibition activity of the compound of the present invention against TREK-1 channel was measured by measuring the physiological activity by whole cell patch clamp recording.
COS7 cell (obtained from Korean Cell Line Bank (KCLB)) was transfected with GFP-rTREK-1 gene (accession number: AY727922) using an Effectene transfection reagent (Qiagen), and cultured for 24 hours in an incubator at 37° C. As a culture medium, Dulbecco's modified Eagle's medium (DMEM, GIBCO products from Invitrogen) containing 10% by weight of fetal bovine serum (FBS) and 1% by weight of penicillin/streptomycin (5000 unit/ml) was used. The cells thus prepared were adhered on a cover glass, which was placed on a chamber, and then a recording solution (150 mM NaCl, 10 mM HEPES, 10 mM KCl, 2 mM CaCl2, 5.5 mM D-Glucose, all reagents were purchased from Sigma) was applied. A glass microelectrode was filled with an intracellular solution prepared with the composition of 150 mM KCl, 5 mM EGTA, 10 mM HEPES, 0.5 mM CaCl2, 1 mM MgCl2, 4 mM Mg-ATP, and 0.3 mM Na-GTP (all reagents were purchased from Sigma), followed by whole-cell patch clamp recording. The voltage was fixed at −70 mV using a Digidata 1322A data acquisition system (Molecular Devices) and an Axopatch 200A amplifier (Axon Instruments), and the current generated by applying a voltage ramp from −100 mV to +100 mV for 1 second was measured using a Clampex9.2 program. A difference between the current values measured at +100 mV and −100 mV was defined as a current in the above experiment. The currents before and after blocker treatment were measured so as to determine the inhibition activity.
Block %=100−(current after blocker treatment/current before blocker treatment)*100

| Compound | block % at 101 μM | block % at 10 μM (Table 2, 10 μM) [%] |
| --- | --- | --- |
| CC(C)Cc1cc(CNC(=O)CN2CCN(C[C@@H](O)COc3ccc(F)cc3)CC2)nn1-c1ccccc1 [KKRE10213, (R)-2-(4-(3-(4-Fluorophenoxy)-2-hydroxypropyl)piperazin-1-yl)-N-((5-isobutyl-1-phenyl-1H-pyrazol-3-yl)methyl)acetamide] | 39.41 ± 3.58% and 64.67 ± 5.79% |  |
| Cc1ccc(CNC(=O)CN2CCN(C[C@H](O)COc3ccc(C(F)(F)F)cc3)CC2)cc1 [KKRE10174, (S)-2-(4-(2-hydroxy-3-(4-(trifluoromethyl)phenoxy)propyl)piperazin-1-yl)-N-(4-methylbenzyl)acetamide] | 35.61 ± 5.66% | 35.60 |
